# Assay: peptide made by a vendor (peptide synthesis; Rink amide resin)
# Conditions: whole synthesis, RP-HPLC recording the absorbance at 214 nm, acetate
substance,measurement,value
ChexRPDKPRPYLPRPRPPRPVR-NH2,final HPLC purity,97.3%
